PubChem BioAssay AID1671195 – Yale University – 2021

Screen: 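Genes whose knockdown alters LDL uptake in liver cancer cells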 (primary screen)
Cells: human Huh7 hepatoma cells
Reagent: siRNA pool against human genes, 18 nM
Timing: about 2 to 2.5 days of knockdown, then 8 h LDL uptake
Treatment: DiI-labelled LDL at 30 µg/ml for 8 h, in lipoprotein-deficient serum medium
Read-out: 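Fluorescent LDL signal imaged in cells, scaled to the plate median, robust z-score for each replicate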
Direction: robust z-score: higher = more LDL uptake after knockdown
Active means: 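a gene counts as active if at least two replicate z-scores exceed ±2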
Shown is a random part of about 22,000 reagents. About 1,510 of all reagents (6.9%) were called active. 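Active includes knockdowns raising or lowering LDL uptake; positive z-scores mean more uptake, negative mean less.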 The numbers tell different reagents against one gene apart.

gene	reagent	robust z-score, replicate 1	robust z-score, replicate 2	robust z-score, replicate 3	Call
CCDC7 (GeneID 79741)	1	1.68	1.73	1.52	inactive
CCDC7 (GeneID 79741)	2	0.25	-0.646	-0.0753	inactive
HNRNPA1P39 (GeneID 402112)	1	-0.927	-0.112	-0.357	inactive
CEP131 (GeneID 22994)	1	0.772	3.54	0.0991	inactive
PPFIA3 (GeneID 8541)	1	-0.212	-1.26	-0.241	inactive
CETN1 (GeneID 1068)	1	-0.146	-0.737	-0.552	inactive
KU-MEL-3 (GeneID 497048)	1	-0.18	0.222	0.135	inactive
PNLIPRP3 (GeneID 119548)	1	-1.24	-1.71	-1.26	inactive
NAA50 (GeneID 80218)	1	0.405	0.283	0.415	inactive
PTGR3 (GeneID 284273)	1	-1.81	-1.58	-1.84	inactive
TBC1D25 (GeneID 4943)	1	0.0157	-0.438	-0.791	inactive
LOC389703 (retired record) (GeneID 389703)	1	-0.735	-0.827	-0.503	inactive
TSPAN8 (GeneID 7103)	1	1.32	1.44	2.75	inactive
MMEL1 (GeneID 79258)	1	-0.791	-0.818	-0.462	inactive
SLC66A3 (GeneID 130814)	1	2.75	2.61	3.42	active
NXPE3 (GeneID 91775)	1	-0.135	-1.13	-0.699	inactive
RPL31P35 (GeneID 100271199)	1	-0.381	-0.242	-0.796	inactive
HAPSTR2 (GeneID 389895)	1	0.962	1.25	0.769	inactive
ASH2L (GeneID 9070)	1	0.4	0.0903	0.564	inactive
NMI (GeneID 9111)	1	1.3	1.05	0.753	inactive
MAPK12 (GeneID 6300)	1	-0.883	-0.696	-0.934	inactive
CYLC2 (GeneID 1539)	1	0.933	0.478	0.799	inactive
CD93 (GeneID 22918)	1	-1.03	-1.25	-1.03	inactive
MIS18BP1 (GeneID 55320)	1	0.45	1.37	0.74	inactive
GPR119 (GeneID 139760)	1	-1.41	-0.634	-1.39	inactive
ZNF888 (GeneID 388559)	1	-0.634	-0.32	0.56	inactive
NASP (GeneID 4678)	1	0.884	0.566	1.03	inactive
RNF144B (GeneID 255488)	1	2.86	1.85	2.26	active
RPS6KA4 (GeneID 8986)	1	0.829	3.83	1.72	inactive
TUBB6 (GeneID 84617)	1	0.0857	-0.339	-0.133	inactive
PRR30 (GeneID 339779)	1	-0.558	-0.36	-0.607	inactive
CEMIP (GeneID 57214)	1	0.805	0.865	0.778	inactive
ST20-AS1 (GeneID 283687)	1	-0.149	-0.102	0.377	inactive
UGGT2 (GeneID 55757)	1	-0.33	0.107	0.146	inactive
GMPPA (GeneID 29926)	1	-1.09	0.798	0.442	inactive
AFF2 (GeneID 2334)	1	0.735	0.418	-0.589	inactive
ABRA (GeneID 137735)	1	-0.387	0.572	-0.5	inactive
ABITRAMP1 (GeneID 390403)	1	0.0415	-0.587	0.635	inactive
RBBP4 (GeneID 5928)	1	-0.588	-0.14	-0.954	inactive
AKR1C3 (GeneID 8644)	1	-0.141	-0.0943	-0.362	inactive
FGB (GeneID 2244)	1	0.0943	-0.528	1.01	inactive
LOC441269 (retired record) (GeneID 441269)	1	0.282	0.399	0.868	inactive

Reformatted: results already given
| gene | reagent | robust z-score, replicate 1 | robust z-score, replicate 2 | robust z-score, replicate 3 | Call |
| --- | --- | --- | --- | --- | --- |
| GPR119 (GeneID 139760) | 1 | -1.41 | -0.634 | -1.39 | inactive |
| ZNF888 (GeneID 388559) | 1 | -0.634 | -0.32 | 0.56 | inactive |
| NASP (GeneID 4678) | 1 | 0.884 | 0.566 | 1.03 | inactive |
| RNF144B (GeneID 255488) | 1 | 2.86 | 1.85 | 2.26 | active |
| RPS6KA4 (GeneID 8986) | 1 | 0.829 | 3.83 | 1.72 | inactive |
| TUBB6 (GeneID 84617) | 1 | 0.0857 | -0.339 | -0.133 | inactive |
| PRR30 (GeneID 339779) | 1 | -0.558 | -0.36 | -0.607 | inactive |
| CEMIP (GeneID 57214) | 1 | 0.805 | 0.865 | 0.778 | inactive |
| ST20-AS1 (GeneID 283687) | 1 | -0.149 | -0.102 | 0.377 | inactive |
| UGGT2 (GeneID 55757) | 1 | -0.33 | 0.107 | 0.146 | inactive |

Next reagents follow:
gene	reagent	robust z-score, replicate 1	robust z-score, replicate 2	robust z-score, replicate 3	Call
KRT73 (GeneID 319101)	1	-0.749	-0.845	-0.896	inactive
SLC16A6 (GeneID 9120)	1	0.446	0.924	0.734	inactive
RNF40 (GeneID 9810)	1	-0.18	-1.04	-0.873	inactive
MPHOSPH6 (GeneID 10200)	1	-0.717	0.55	-0.636	inactive
CATSPER2 (GeneID 117155)	1	0.0238	-0.53	0.0178	inactive
HIVEP3 (GeneID 59269)	1	-1.15	-1.73	-1.57	inactive
ARHGAP33 (GeneID 115703)	1	-0.0199	-0.171	0.0781	inactive
KIF18A (GeneID 81930)	1	-0.289	-0.0637	-0.153	inactive
SLC25A48-AS1 (GeneID 340074)	1	-0.181	-0.35	-0.473	inactive
PLPP4 (GeneID 196051)	1	-0.59	-0.622	-0.982	inactive
AEBP1 (GeneID 165)	1	-1.36	-1.06	-1.27	inactive
ELAVL1 (GeneID 1994)	1	2.85	2.89	2.43	active
SERPINB11 (GeneID 89778)	1	1.16	0.692	0.772	inactive
DNAJB6 (GeneID 10049)	1	-0.177	0.238	0.00162	inactive
LOC286404 (retired record) (GeneID 286404)	1	-0.00747	-0.197	-0.0427	inactive
BTRC (GeneID 8945)	1	2.22	1.62	1.84	inactive
CEBPB (GeneID 1051)	1	-0.0932	-0.257	0.191	inactive
TBX4 (GeneID 9496)	1	1.14	0.924	0.879	inactive
ZNF16 (GeneID 7564)	1	1.21	1.75	0.713	inactive
CLIC5 (GeneID 53405)	1	1.09	0.291	1.22	inactive
PPIP5K1 (GeneID 9677)	1	-0.551	-0.217	0.322	inactive
TBCE (GeneID 6905)	1	2.06	1.93	2.42	active
HDAC9 (GeneID 9734)	1	0.291	-0.238	-1.13	inactive
RANGRF (GeneID 29098)	1	1.58	-0.692	0.636	inactive
F11R (GeneID 50848)	1	-0.626	0.155	1.2	inactive
HRH4 (GeneID 59340)	1	0.886	-0.178	-0.0118	inactive
